A short description of the data set: Host macrophage cytotoxicity, resazurin assay. The class given is cell-based. To be noted: human, PMA-differentiated THP-1 cells (macrophages).

These results are taken from PMC10583827 (RSC Medicinal Chemistry, 2023).

Molecules are shown by their SMILES.

As for `O=C1OCCN1/N=C/c1ccc([N+](=O)[O-])o1` [FZD, furazolidone, reference compound], the IC50 (in general, the point on the concentration scale where inhibition reaches its midpoint) at 72 h was more than 100 µM.
